Measurements reported in PubChem BioAssay AID1224830 (NIAID, 2016)

Aim: 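Genes whose knock-down alters the TNF-alpha reporter response to LPS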 (primary screen)
Cells: human THP-1 monocytic leukaemia cells, TNF dual-luciferase reporter clone, PMA-differentiated to macrophage-like cells
Reagent: siRNA pool against human genes, 50 nM
Time to read-out: LPS for 4 h, given about 3 days after siRNA transfection
Challenge: bacterial LPS (TLR4 ligand), 10 ng/ml
Measured: 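Ratio of firefly to renilla light, scaled to the plate median and expressed as a robust z-score per replicate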
Direction: TNF reporter robust z-score: higher = stronger TNF reporter response to LPS
Hit rule: 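a well is active when its z-score exceeds 2.8 or falls below -1.5; control wells carry no call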
The whole screen tested about 18,000 reagents; below is a random part of them. About 2,900 of them (16%) count as active. 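Calls are made per well; low scores hint the gene aids the LPS response, high scores that it dampens it.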 Repeated entries: four replicate wells of each siRNA pool.

| Target gene | TNF reporter robust z-score | activity call |
| --- | --- | --- |
| MN1 | -0.68 | inactive |
| MN1 | 0.23 | inactive |
| MN1 | -0.63 | inactive |
| MN1 | 0.92 | inactive |
| PKM | 1.81 | inactive |
| PKM | 5.33 | active |
| PKM | 1.34 | inactive |
| PKM | 1.27 | inactive |
| CRTAC1 | 1.47 | inactive |
| CRTAC1 | -0.99 | inactive |
| CRTAC1 | 0.51 | inactive |
| CRTAC1 | 0.07 | inactive |
| TRMU | 1.79 | inactive |
| TRMU | 1.16 | inactive |
| TRMU | -0.12 | inactive |
| TRMU | 2.69 | inactive |
| GPR55 | 0.35 | inactive |
| GPR55 | 1.94 | inactive |
| GPR55 | 1.67 | inactive |
| GPR55 | 1.87 | inactive |
| GZMA | 0.96 | inactive |
| GZMA | 1.53 | inactive |
| GZMA | 0.37 | inactive |
| GZMA | 2.77 | inactive |
| RGP1 | 0.23 | inactive |
| RGP1 | 1.18 | inactive |
| RGP1 | 0.63 | inactive |
| RGP1 | 0.62 | inactive |
| DIRC1 | -0.29 | inactive |
| DIRC1 | -0.54 | inactive |
| DIRC1 | -0.24 | inactive |
| DIRC1 | 1.13 | inactive |
| OXSM | 0.21 | inactive |
| OXSM | 0.09 | inactive |
| OXSM | -0.44 | inactive |
| OXSM | 0.82 | inactive |
| GPHB5 | 3.35 | active |
| GPHB5 | 0.1 | inactive |
| GPHB5 | -0.32 | inactive |
| GPHB5 | 0.69 | inactive |
| P2RY12 | 0.76 | inactive |
| P2RY12 | 0.11 | inactive |
| P2RY12 | 0.39 | inactive |
| P2RY12 | 1.03 | inactive |
| RBKS | -0.79 | inactive |
| RBKS | -0.55 | inactive |
| RBKS | -0.5 | inactive |
| RBKS | -1.64 | active |

Entries listed so far whose gene name begins with O or o (4):
| Target gene | TNF reporter robust z-score | activity call |
| --- | --- | --- |
| OXSM | 0.21 | inactive |
| OXSM | 0.09 | inactive |
| OXSM | -0.44 | inactive |
| OXSM | 0.82 | inactive |
